Assay results taken from PubChem BioAssay AID485353 (National Center for Advancing Translational Sciences (NCATS), 2010).
About 610 (0.18%) of roughly 330,000 compounds were called active. Inconclusive means that the source gave no clear call. Such entries were picked first, then a sample of the others. Calls come from the whole dose curve. Potencies beside an inconclusive call are fits to weak or partial responses and may not hold up.

Experiment: qHTS of Yeast-based Assay for SARS-CoV PLP; note: nearly all actives have a fitted effect of over 55% in size; for activity, positive = growth rescue: 0% is about no effect
Conditions: S. cerevisiae expressing SARS-CoV PLpro; Potency: growth rescue; activity, positive = growth rescue: at 32.9 µM (top of the series)
Potency is the fitted concentration of half-maximal effect.

| SMILES | Potency | activity, positive = growth rescue |
| --- | --- | --- |
| CC12CC(NC(=O)N1c1cccc(C(=O)NCc3ccccc3)c1)c1ccccc1O2 (centres undefined) | inconclusive: 3.98 µM [activator, full curve] | – |
| O=C(CSc1nc(=O)n(CCN2CCOCC2)c2c1CCC2)Nc1ccc(OC(F)(F)F)cc1 | – | inactive: 0.73% |
| Cc1c(C(=O)N2CCCCC2)c(S(=O)(=O)NCCc2ccc(S(N)(=O)=O)cc2)c(C)n1C | – | inactive: -2.82% |
| COc1ccc(CC(=O)NNC(=O)COc2ccc(Cl)cc2C)cc1S(=O)(=O)N1CCOCC1 | – | inactive: -1.69% |
| Cc1ccc2nc(NC(=O)CCNS(=O)(=O)c3cccs3)sc2c1 | inconclusive: 15.8 µM [activator, single point] | – |
| Cc1cc(C(=O)N/N=C/c2cc([N+](=O)[O-])cc(C)c2O)n[nH]1 | active: 4.47 µM | – |
| Cc1cc(Cl)ccc1NC(=S)Nc1ccccn1 | active: 5.01 µM | – |
| CC[C@]1(C(=O)OC)[C@H]2C(=O)N(C)C(=O)[C@H]2[C@H]2CN=C(SCc3ccc(Cl)cc3)N21 | inconclusive: 3.55 µM [activator, partial curve, poor fit] | – |
| Cc1ccccc1C(=O)NNC(=O)c1ccoc1C | inconclusive: 11.2 µM [activator, single point] | – |
| Cc1ccc(S(=O)(=O)N2CCOC2CNC(=O)C(=O)NCCN(C)C)cc1 (centres undefined) | inconclusive: 3.98 µM [activator, single point] | – |
| CC(/C=C/c1ccco1)=N\NC(=O)c1cc(Cl)ccc1O | inconclusive: 11.2 µM [activator, partial curve] | – |
| C/C(=N\NC(=S)NC1CCCCC1)c1ccccc1 | active: 7.94 µM | – |
| O=C(CSc1ccc(-c2ccccn2)nn1)c1ccccc1 | inconclusive: 4.47 µM [activator, single point] | – |
| CCOC(=O)C1=NN(C(=O)c2ccc(OC)cc2)C(O)(c2ccc(Cl)cc2)C1 (centres undefined) | inconclusive: 17.8 µM [activator, single point] | – |
| Cc1cccc(N2CCN(C(=O)C34CC5CC(CC(C5)C3)C4)CC2)c1C | inconclusive: 20 µM [activator, single point] | – |
| Cc1c(NC(=O)CSc2ccc(Cl)cc2)cccc1-c1nc2ncccc2o1 | inconclusive: 3.98 µM [activator, single point] | – |
| O=C(NNC(=O)c1ccc(Cn2cccn2)o1)NC12CC3CC(CC(C3)C1)C2 | inconclusive: 2.51 µM [activator, partial curve] | – |
| COc1cc(OC)cc(-c2oc3cccnc3c2C#CCCO)c1 | – | inactive: 4.94% |
| COc1cccc(C2SCC(=O)N2c2ccc(C)cc2)c1OC (centres undefined) | inconclusive: 3.98 µM [activator, full curve, poor fit] | – |
| O=C(CSc1nnc2ccccn12)Nc1ncc(Cl)cc1Cl | – | inactive: 4.81% |
| CC1=NN(/C(=N\c2nnc(C)s2)Nc2ccc(C)cc2)[C@H](c2ccc(C)cc2)S1 | inconclusive: 4.47 µM [activator, single point] | – |
| COc1ccc(C)cc1S(=O)(=O)Nc1ccc(F)c(Cl)c1 | inconclusive: 3.98 µM [activator, single point] | – |

| SMILES | Potency | activity, positive = growth rescue |
| --- | --- | --- |
| CCCOc1ccc(-c2c(C(=O)N/N=C/C3CCCCC3)nnn2-c2nonc2N)cc1 | inconclusive: 4.47 µM [activator, single point] | – |
| Cc1cc2nc(C(F)(F)F)[nH]c(=O)n2n1 | inconclusive: 20 µM [activator, single point] | – |
| Cc1ccc(C(=O)NCCc2ccccc2)cc1N1CCCC1=O | inconclusive: 0.398 µM [activator, full curve, poor fit] | – |
| Cc1ccc(-n2nc3c(N4CCC(C(=O)NCc5ccc(C)o5)CC4)nnc(C)c3c2C)cc1 | inconclusive: 2.51 µM [activator, single point] | – |
| CC12CCC(C(=O)N(CSC(=S)N/N=C\c3ccccc3)C1=O)C2(C)C (centres undefined) | active: 10 µM | – |
| N#C/C(=C\c1ccc(-c2ccccc2)cc1)c1nc(-c2ccco2)cs1 | inconclusive: 2.24 µM [activator, full curve, poor fit] | – |
| c1ccc2c(Cn3ccnc3)c[nH]c2c1 | – | inactive: -5.57% |
| CN1CCN(C2CCN(Cc3ccc(O)c4ncccc34)CC2)CC1 | inconclusive: 4.47 µM [activator, partial curve] | – |
| COc1ccc(N=C2SC(C(N)=O)CC(=O)N2CCc2ccc(OC)c(OC)c2)cc1 (centres undefined) | inconclusive: 10 µM [activator, partial curve] | – |
| CC(C)N(C(=O)Cn1cc(S(=O)(=O)CC(=O)NCc2ccc(F)cc2)c2ccccc21)C(C)C | inconclusive: 20 µM [activator, single point] | – |
| O=C(N/N=C/c1ccccc1OCC(=O)N1CCCC1)C(=O)Nc1ccccc1F | – | inactive: -2.53% |
| Cc1cccc(C2NC(c3cccc(C)c3)C([N+](=O)[O-])C(C)(C)C2[N+](=O)[O-])c1 (centres undefined) | inconclusive: 0.398 µM [activator, partial curve, poor fit] | – |
| C#Cc1cccc(C(=O)N2CCCC(Nc3cccc(F)c3)C2)c1 (centres undefined) | inconclusive: 0.398 µM [activator, full curve, poor fit] | – |
| CN1CCOC(c2ccccc2)c2ccccc2C1 (centres undefined) | active: 5.01 µM | – |
| COC(=O)C1C(=O)C2=C(CC1C)NC(=O)CC2c1ccccc1 (centres undefined) | – | inactive: -8.21% |
| COc1ccc(-n2cnnc2SCC(=O)Nc2cc(S(=O)(=O)N3CCCCC3)ccc2C)cc1 | – | inactive: -1.94% |
| Cc1ccc(S(=O)(=O)N2CCN(c3nn(C)c(=O)n(C)c3=O)CC2)cc1C | – | inactive: -40.6% |
| CC(C)OC(=O)[C@H]1[C@H](c2ccc(Cl)cc2)[C@@](C#N)(C(N)=O)[C@@H]2C=CC(C(N)=O)=CN21 | inconclusive: 10 µM [activator, single point] | – |
| CCN(C(=O)CSc1nnc(Cn2nnc3ccccc32)o1)c1nc(-c2ccccc2)cs1 | – | inactive: 6.99% |
| Cc1ccc2oc(C(=O)N3CCC(N4CCSCC4)CC3)c(C)c2c1 | – | inactive: 0.352% |
| COC(=O)C1=C(O)/C(=C\c2ccc(OCC(=O)Nc3ccccc3)cc2)N=C1C | inconclusive: 3.16 µM [activator, single point] | – |
| N#C/C(C(=O)NCCc1ccccc1)=C1/N=C(NC(=O)c2cccs2)c2ccccc21 | inconclusive: 4.47 µM [activator, single point] | – |

Of the compounds above, two contain a CF3 group.

| SMILES | Potency | activity, positive = growth rescue |
| --- | --- | --- |
| O=C(CSc1nc(=O)n(CCN2CCOCC2)c2c1CCC2)Nc1ccc(OC(F)(F)F)cc1 | – | inactive: 0.73% |
| Cc1cc2nc(C(F)(F)F)[nH]c(=O)n2n1 | inconclusive: 20 µM [activator, single point] | – |
